# Test results: PubChem BioAssay AID1439 (NMMLSC, 2008)
# Amino acid sequences for entries named in this document (tags omitted).
# UniProt P09471, whole entry, looked up: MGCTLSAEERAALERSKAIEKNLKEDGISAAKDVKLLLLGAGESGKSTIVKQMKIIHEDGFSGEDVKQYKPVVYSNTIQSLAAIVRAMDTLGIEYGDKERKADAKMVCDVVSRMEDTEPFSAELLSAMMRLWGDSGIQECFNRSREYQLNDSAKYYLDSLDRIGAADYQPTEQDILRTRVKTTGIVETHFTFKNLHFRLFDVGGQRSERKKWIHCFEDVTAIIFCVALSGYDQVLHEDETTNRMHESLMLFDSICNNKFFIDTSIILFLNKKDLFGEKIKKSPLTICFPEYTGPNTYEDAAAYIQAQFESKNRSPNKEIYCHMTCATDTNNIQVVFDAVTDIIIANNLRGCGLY
# Screen size: about 220,000 compounds; about 770 (0.35%) were called active. Inconclusive means that the source gave no clear call. Such entries were picked first, then a sample of the others. Rule as the data show it: active = binding response below about 49% or above about 150%; inconclusive = no clear call, values can overlap the other calls; inactive = in between.
# Target: Guanine nucleotide-binding protein G(o) subunit alpha (Homo sapiens) (UniProt P09471)
# Experiment: RGS7-Galphao binding modulators, primary screen, biochemical, multiplexed bead flow cytometry (AID 1439);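 also: fluorescent Galphao held in activated GDP-AlF4 state binding bead-coupled RGS7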
# Conditions: at 10 µM, actives lie on both sides
row,SMILES,binding response (% of control)
1,COC(=O)c1cc2c(C)nn(C)c2s1,inconclusive: 95.1%
2,O=c1cnnc(N/N=C/c2ccccn2)[nH]1,inconclusive: 60.6%
3,Cc1csc(SCC(=O)NCc2ccccc2)n1,inconclusive: 84.9%
4,O=C1c2ccccc2C(O)(c2ccccc2)N1C1CC1 (stereo not drawn),inconclusive: 160%
5,O=C(O)CCC(=O)N1CN2CN(C(=O)CCC(=O)O)CC([N+](=O)[O-])(C2)C1,inconclusive: 133%
6,O=C(c1ccc(C(F)(F)F)cc1)N1CCCCC1,inactive: 91.3%
7,CC(C)(C)c1cc(C(=O)Nc2ccc(F)cc2)n(Cc2ccc(F)cc2)n1,inconclusive: 117%
8,COC(=O)N/N=C1/C/C(=N\NC(=O)OC)c2ccccc21,inconclusive: 69%
9,CN(C)c1ccc(-c2nc3ccccc3c(=O)[nH]2)cc1,inconclusive: 107%
10,O=[N+]([O-])c1cccc(N/N=C/c2cc([N+](=O)[O-])ccc2O)c1,inconclusive: 105%
11,CN(C)/C=C(\C(=O)c1cccc(Cl)c1)c1nnnn1-c1ccccc1,inconclusive: 64.5%
12,CCOC(=O)Cn1c(=NC(=O)C(C)C)sc2c(C)cc(C)cc21,inconclusive: 105%
13,O=C(O)CCNc1ccc(Cl)cc1,inconclusive: 123%
14,O=C1CSC(=Nc2ccc(Cl)cc2)N1Cc1ccco1,inconclusive: 86.4%
15,CC1CCN(C(=O)C2CCCCN2S(=O)(=O)c2cccc([N+](=O)[O-])c2)CC1 (stereo not drawn),inconclusive: 101%
16,Cc1c(Cl)cccc1NC(=O)c1ncn[nH]1,inconclusive: 91%
17,CCNC(=O)c1c(NC(=O)C2COc3ccccc3O2)sc2c1CCCC2 (stereo not drawn),active: 155% [activator]
18,Cn1ncc(Br)c1C(=O)Nc1cccc(C(F)(F)F)c1,inconclusive: 110%
19,Cc1[nH]c2ccccc2c1C(=O)CN1C(=O)C(=O)N(Cc2ccco2)C1=O,inconclusive: 121%
20,Cn1c(SCC(=O)N2c3ccccc3CCc3ccccc32)nnc1-c1ccc(O)cc1,inactive: 99.9%

row,SMILES,binding response (% of control)
1,CCCS(=O)(=O)Nc1c(C(=O)O)[nH]c2ccc(OC)cc12,inconclusive: 120%
2,O=C(CC(Nc1ccccc1)C(=O)O)c1ccccc1 (stereo not drawn),inactive: 94.1%
3,NN(CCO)C(=S)Nc1ccc(Cl)cc1,inconclusive: 109%
4,COc1ccccc1NC(=O)Cn1cnc2c(nnn2-c2ccc(C)cc2)c1=O,active: 154% [activator]
5,Cc1c(C(=O)NNC(=S)Nc2cccc(Cl)c2)nnn1-c1ccccc1,inactive: 106%
6,Cc1nc(SCC(=O)c2ccc(F)c(F)c2)[nH]c(=O)c1Oc1ccc(F)cc1,inconclusive: 113%
7,Cc1cc(C)n2nc(C(=O)N(C)C(c3ccccc3)c3ccccc3)nc2n1,inactive: 99%
8,COc1ccccc1/C=C/CN1CCCC(CCC(=O)NCc2ccccc2F)C1 (stereo not drawn),inactive: 101%
9,COc1ccc2[nH]c3c(=O)n(Cc4ccncc4)cnc3c2c1,inconclusive: 28.7%
10,CSc1n[nH]c(=O)n1-c1ccc(Cl)cc1,inconclusive: 149%
11,CC(O)CNCc1ccc(Cl)cc1Cl (stereo not drawn),inconclusive: 100%
12,O=C(COC(=O)c1cc(-c2ccccn2)nc2ccccc12)Nc1ncc(C(F)(F)F)cc1Cl,inconclusive: 79%
13,COc1ccc(NS(=O)(=O)c2cccc(NC(=O)c3ccccn3)c2)cc1,inconclusive: 108%
14,Cc1ccc(NS(=O)(=O)c2cccc(C(=O)Nc3c(C)n(C)n(-c4ccccc4)c3=O)c2)cc1,inconclusive: 93%
15,CCOC(=O)N/N=C1\CC(C)S(=O)(=O)c2ccc(Cl)cc21 (stereo not drawn),inconclusive: 131%
16,COc1cc(C2NC(=S)NC(C)=C2C(=O)Nc2ccc(C)cc2)ccc1O (stereo not drawn),inactive: 101%
17,CS(=O)(=O)N(CC(=O)NCCC1=CCCCC1)c1cccc([N+](=O)[O-])c1,inconclusive: 86.6%
18,S=c1[nH]nc(CSCCOc2ccc(Cl)cc2Cl)o1,inconclusive: 59.9%
19,COc1cc(NC(=O)c2c(F)cccc2F)c(Cl)cc1Cl,inconclusive: 78.7%
20,COc1ccc(NC(=O)Cn2cnc3sc(C)c(S(=O)(=O)N4CCN(C)CC4)c3c2=O)cc1OC,inactive: 108%

# A section taken from the entries so far, for reference:
row,SMILES,binding response (% of control)
15,CCOC(=O)N/N=C1\CC(C)S(=O)(=O)c2ccc(Cl)cc21 (stereo not drawn),inconclusive: 131%
16,COc1cc(C2NC(=S)NC(C)=C2C(=O)Nc2ccc(C)cc2)ccc1O (stereo not drawn),inactive: 101%

# Next records

row,SMILES,binding response (% of control)
1,CC(C)OC(=O)CSc1nnc(-c2ccccn2)n1N,inconclusive: 134%
2,CCCCCc1cc(=O)oc2c(C(CCN3CCN(c4ccccc4)CC3)c3ccc(N(C)C)cc3)c(OC)cc(OC)c12 (stereo not drawn),inconclusive: 104%
3,CC(=O)Nc1ccc(C)c(NC(=S)Nc2ccc(F)cc2)c1,inconclusive: 96.1%
4,NC1=NC[C@H](Cc2ccc(O)cc2)N1CCCCC1CCCCC1,inconclusive: 99.1%
5,O=C(c1ccc(S(=O)(=O)NCC2CCCO2)cc1)N1CCN(c2cccc(Cl)c2)CC1 (stereo not drawn),inconclusive: 110%
6,Cn1c(-c2nnn(-c3ccc(F)cc3)n2)cc2ccccc21,inactive: 97.3%
7,CC1(C)CCC(C)(C)NC(=S)N1,inactive: 98.1%
8,CCC(CC)C(=O)Nc1cccc(C(=O)NC(C)(C)C)c1,inconclusive: 111%
9,CCN(C(=O)COC(=O)c1cc(-c2ccccc2)nc2ccc(Br)cc12)C1CCS(=O)(=O)C1 (stereo not drawn),inconclusive: 99.9%
10,COc1ccc(/C=C/C(=O)Nc2ccccc2C)cc1S(=O)(=O)N1CCOCC1,inconclusive: 121%
11,CCOC(=O)Cc1csc(NC(=O)CSc2nnc(-c3ccc(F)cc3)o2)n1,inactive: 56.6%
12,Clc1ccc(-c2nc3ncccn3c2Cl)cc1,inconclusive: 109%
13,CCOC(=O)C(=NC1CCS(=O)(=O)C1)NNc1cc(Cl)ccc1Cl (stereo not drawn),inconclusive: 107%
14,COc1ccc(CCNC(=O)C(=O)NN=C2CCCCCCC2)cc1OC,inconclusive: 46.3%
15,CC(=O)Oc1ccc2nc(CN3C(=O)c4ccc([N+](=O)[O-])cc4C3=O)oc(=O)c2c1,inactive: 102%
16,Cn1c(=O)c(=O)n(C)c2cc(S(=O)(=O)NCCN3CCN(c4ccccc4F)CC3)ccc21,inconclusive: 272%
17,O=C(O)c1ccc2c(c1)SC1=NS(=O)(=O)CCN12,inconclusive: -21.8%
18,O=C(CCC(=O)N/N=C/c1ccccc1O)NCc1ccccc1,inactive: 95%
